Among the data in paper PMC8539892 are binding values, retold here.

Chains of the proteins cited; added tags and fusions are not shown.
UniProt P21127: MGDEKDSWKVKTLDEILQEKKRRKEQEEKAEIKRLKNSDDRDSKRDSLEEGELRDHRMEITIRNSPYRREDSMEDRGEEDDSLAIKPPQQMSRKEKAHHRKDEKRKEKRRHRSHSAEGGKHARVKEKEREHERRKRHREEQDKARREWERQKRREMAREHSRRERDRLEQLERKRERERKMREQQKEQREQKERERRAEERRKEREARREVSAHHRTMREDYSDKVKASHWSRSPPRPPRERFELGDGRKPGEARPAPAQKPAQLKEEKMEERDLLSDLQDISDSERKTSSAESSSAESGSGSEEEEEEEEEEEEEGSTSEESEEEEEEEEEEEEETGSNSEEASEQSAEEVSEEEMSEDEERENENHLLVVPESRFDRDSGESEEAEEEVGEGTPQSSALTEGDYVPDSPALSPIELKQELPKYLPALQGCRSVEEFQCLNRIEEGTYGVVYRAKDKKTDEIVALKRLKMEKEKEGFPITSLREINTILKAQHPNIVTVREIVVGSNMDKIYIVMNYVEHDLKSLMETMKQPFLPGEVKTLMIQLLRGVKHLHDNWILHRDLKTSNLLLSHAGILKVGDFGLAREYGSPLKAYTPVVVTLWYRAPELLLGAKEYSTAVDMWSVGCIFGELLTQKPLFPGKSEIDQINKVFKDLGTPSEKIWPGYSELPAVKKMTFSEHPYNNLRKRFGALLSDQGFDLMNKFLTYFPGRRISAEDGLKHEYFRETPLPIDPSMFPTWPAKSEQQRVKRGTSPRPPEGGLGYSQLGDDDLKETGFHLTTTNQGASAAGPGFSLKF
UniProt Q8IZL9: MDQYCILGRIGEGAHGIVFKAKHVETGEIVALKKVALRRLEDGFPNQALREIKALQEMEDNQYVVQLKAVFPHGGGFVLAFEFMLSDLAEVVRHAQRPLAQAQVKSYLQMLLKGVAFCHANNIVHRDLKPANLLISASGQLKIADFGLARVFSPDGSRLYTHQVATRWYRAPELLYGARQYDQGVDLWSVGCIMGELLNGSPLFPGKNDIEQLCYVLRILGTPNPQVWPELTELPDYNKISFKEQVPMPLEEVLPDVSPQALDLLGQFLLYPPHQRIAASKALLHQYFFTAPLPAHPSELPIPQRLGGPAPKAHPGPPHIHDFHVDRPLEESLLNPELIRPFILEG
UniProt Q14004: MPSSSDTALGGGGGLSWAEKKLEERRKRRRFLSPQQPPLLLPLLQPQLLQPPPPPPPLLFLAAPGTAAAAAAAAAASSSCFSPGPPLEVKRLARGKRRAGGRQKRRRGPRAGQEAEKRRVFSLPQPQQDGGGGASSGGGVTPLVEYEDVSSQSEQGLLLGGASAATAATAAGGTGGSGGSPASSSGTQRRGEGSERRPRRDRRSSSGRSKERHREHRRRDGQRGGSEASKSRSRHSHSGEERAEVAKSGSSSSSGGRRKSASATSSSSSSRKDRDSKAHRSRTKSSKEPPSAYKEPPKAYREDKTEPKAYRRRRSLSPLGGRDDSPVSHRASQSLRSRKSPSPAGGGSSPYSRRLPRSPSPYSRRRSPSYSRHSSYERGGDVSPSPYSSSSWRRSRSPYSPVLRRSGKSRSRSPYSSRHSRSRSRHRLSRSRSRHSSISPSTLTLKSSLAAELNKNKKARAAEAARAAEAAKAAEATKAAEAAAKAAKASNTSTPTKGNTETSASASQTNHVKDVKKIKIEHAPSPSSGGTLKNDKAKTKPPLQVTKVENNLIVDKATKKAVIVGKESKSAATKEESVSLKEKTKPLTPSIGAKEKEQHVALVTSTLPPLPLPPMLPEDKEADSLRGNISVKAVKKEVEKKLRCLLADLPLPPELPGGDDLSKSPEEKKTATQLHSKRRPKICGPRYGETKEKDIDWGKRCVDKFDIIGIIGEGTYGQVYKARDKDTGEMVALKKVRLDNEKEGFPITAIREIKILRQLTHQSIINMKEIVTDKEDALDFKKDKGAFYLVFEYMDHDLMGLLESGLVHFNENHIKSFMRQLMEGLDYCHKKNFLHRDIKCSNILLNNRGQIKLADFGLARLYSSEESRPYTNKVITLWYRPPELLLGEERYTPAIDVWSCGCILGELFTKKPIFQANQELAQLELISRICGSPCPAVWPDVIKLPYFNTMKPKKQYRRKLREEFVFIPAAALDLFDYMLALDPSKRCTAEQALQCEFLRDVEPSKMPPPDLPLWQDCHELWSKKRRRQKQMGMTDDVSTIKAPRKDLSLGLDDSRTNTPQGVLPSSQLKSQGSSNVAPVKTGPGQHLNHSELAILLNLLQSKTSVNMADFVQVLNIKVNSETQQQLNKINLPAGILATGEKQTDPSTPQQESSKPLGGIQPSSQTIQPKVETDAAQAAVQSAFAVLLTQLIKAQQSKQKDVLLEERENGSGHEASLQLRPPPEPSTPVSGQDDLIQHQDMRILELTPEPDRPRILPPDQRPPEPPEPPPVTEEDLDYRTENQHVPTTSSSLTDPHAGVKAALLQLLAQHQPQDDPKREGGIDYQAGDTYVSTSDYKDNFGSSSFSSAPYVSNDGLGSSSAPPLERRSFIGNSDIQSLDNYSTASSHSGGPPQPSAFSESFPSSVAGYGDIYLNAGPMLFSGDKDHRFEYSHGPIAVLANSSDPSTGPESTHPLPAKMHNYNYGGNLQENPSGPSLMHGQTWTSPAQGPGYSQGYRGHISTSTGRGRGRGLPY
UniProt P50750: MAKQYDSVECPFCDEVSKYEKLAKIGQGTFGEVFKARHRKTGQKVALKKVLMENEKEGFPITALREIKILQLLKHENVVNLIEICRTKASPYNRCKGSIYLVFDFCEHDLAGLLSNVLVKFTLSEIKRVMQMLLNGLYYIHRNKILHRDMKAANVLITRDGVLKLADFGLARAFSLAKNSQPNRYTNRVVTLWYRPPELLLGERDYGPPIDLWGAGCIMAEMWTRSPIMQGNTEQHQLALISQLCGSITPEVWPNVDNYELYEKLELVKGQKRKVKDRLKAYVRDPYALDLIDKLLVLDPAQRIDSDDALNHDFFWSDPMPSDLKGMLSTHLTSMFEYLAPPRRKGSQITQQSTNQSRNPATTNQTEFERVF

First the molecules themselves.
T1: His-ICP22^CCR (HSV-1) (UniProt P04485)
T1 sequence: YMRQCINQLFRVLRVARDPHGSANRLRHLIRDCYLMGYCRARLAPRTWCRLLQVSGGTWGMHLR

B1: Cyclin K (protein, UniProt O75909 1-580)
chain: MKENKENSSPSVTSANLDHTKPCWYWDKKDLAHTPSQLEGLDPATEARYRREGARFIFDVGTRLGLHYDTLATGIIYFHRFYMFHSFKQFPRYVTGACCLFLAGKVEETPKKCKDIIKTARSLLNDVQFGQFGDDPKEEVMVLERILLQTIKFDLQVEHPYQFLLKYAKQLKGDKNKIQKLVQMAWTFVNDSLCTTLSLQWEPEIIAVAVMYLAGRLCKFEIQEWTSKPMYRRWWEQFVQDVPVDVLEDICHQILDLYSQGKQQMPHHTPHQLQQPPSLQPTPQVPQVQQSQPSQSSEPSQPQQKDPQQPAQQQQPAQQPKKPSPQPSSPRQVKRAVVVSPKEENKAAEPPPPKIPKIETTHPPLPPAHPPPDRKPPLAAALGEAEPPGPVDATDLPKVQIPPPAHPAPVHQPPPLPHRPPPPPPSSYMTGMSTTSSYMSGEGYQSLQSMMKTEGPSYGALPPAYGPPAHLPYHPHVYPPNPPPPPVPPPPASFPPPAIPPPTPGYPPPPPTYNPNFPPPPPRLPPTHAVPPHPPPGLGLPPASYPPPAVPPGGQPPVPPPIPPPGMPPVGGLGRAAWMR
B2: Cyclin L1 (protein, UniProt Q9UK58 1-526)
chain: MASGPHSTATAAAAASSAAPSAGGSSSGTTTTTTTTTGGILIGDRLYSEVSLTIDHSLIPEERLSPTPSMQDGLDLPSETDLRILGCELIQAAGILLRLPQVAMATGQVLFHRFFYSKSFVKHSFEIVAMACINLASKIEEAPRRIRDVINVFHHLRQLRGKRTPSPLILDQNYINTKNQVIKAERRVLKELGFCVHVKHPHKIIVMYLQVLECERNQTLVQTAWNYMNDSLRTNVFVRFQPETIACACIYLAARALQIPLPTRPHWFLLFGTTEEEIQEICIETLRLYTRKKPNYELLEKEVEKRKVALQEAKLKAKGLNPDGTPALSTLGGFSPASKPSSPREVKAEEKSPISINVKTVKKEPEDRQQASKSPYNGVRKDSKRSRNSRSASRSRSRTRSRSRSHTPRRHYNNRRSRSGTYSSRSRSRSRSHSESPRRHHNHGSPHLKAKHTRDDLKSSNRHGHKRKKSRSRSQSKSRDHSDAAKKHRHERGHHRDRRERSRSFERSHKSKHHGGSRSGHGRHRR

These are yes or no findings as the source states them, for the method shown. Binding seen in cells or lysates may run through a third protein. Here binding means that the protein was enriched with, or labelled near, the bait; the list need not be complete. A no says only that the protein was not detected with the bait. Sequences can lack the tags named with a protein.

The experiment deals with T1, His-ICP22^CCR (HSV-1). Briefly: affinity purification with mass spectrometry; His-ICP22^CCR (control His-IpgC) on nickel beads, HeLa nuclear extract diluted 1:1 with IP buffer and precleared, overnight; LC-MS/MS; at least two unique peptides in two independent experiments; only the target purified.
Consider CDK11B (from UniProt P21127 1-795), for which the binding result is reported as “binds”.
With CDK20 (from UniProt Q8IZL9 1-346) the entry was “no binding”; with CDK13 (from UniProt Q14004 1-1512), “binds”.
Under CDK9 (from UniProt P50750 1-372) stands “binds”; under B1, “binds”.
Under B2 stands “binds”.
